The target of the experiment is T1, Neuropilin 1 (NRP1), R&D 3870-N1-025 (UniProt O14786).
T1 sequence (biotinylated at a 1,2 molar ratio, looked up): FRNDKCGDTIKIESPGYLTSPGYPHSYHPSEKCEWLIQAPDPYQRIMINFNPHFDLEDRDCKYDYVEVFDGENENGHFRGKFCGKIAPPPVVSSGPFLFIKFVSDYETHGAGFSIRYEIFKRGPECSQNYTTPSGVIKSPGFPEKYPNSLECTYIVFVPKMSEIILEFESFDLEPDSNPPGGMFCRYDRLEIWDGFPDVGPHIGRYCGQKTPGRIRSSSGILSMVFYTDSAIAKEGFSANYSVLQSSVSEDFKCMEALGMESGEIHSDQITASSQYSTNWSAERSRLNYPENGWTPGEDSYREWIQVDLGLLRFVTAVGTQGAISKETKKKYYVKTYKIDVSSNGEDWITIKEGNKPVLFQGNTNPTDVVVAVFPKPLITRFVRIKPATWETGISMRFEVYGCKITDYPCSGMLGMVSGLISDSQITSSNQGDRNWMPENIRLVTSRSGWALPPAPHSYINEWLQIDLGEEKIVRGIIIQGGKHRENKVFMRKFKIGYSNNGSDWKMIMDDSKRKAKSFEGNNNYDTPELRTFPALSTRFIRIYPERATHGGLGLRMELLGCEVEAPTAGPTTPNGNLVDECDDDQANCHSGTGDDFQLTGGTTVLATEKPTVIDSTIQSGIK
The experiment can be described thus: BLI, NRP1 on biosensor.

This note sets out measurements from patent US20260139017A1, “COMPOSITIONS AND METHODS USING REELIN IN ALZHEIMER'S DISEASE” (The General Hospital Corporation, priority 2022, published 2026).

These are yes or no findings as the source states them, for the method shown. Some results given as binding are weak or reduced against the parent protein; the word gives no strength. Where a sequence is shown, tags or fusion partners need not be part of it.

B1: Fc-fusion CTR-RELN WT (184I pfcn-huIgG2-C-termH3447WT) (Fc fusion)
chain: APLERKSSVECPPCPAPPVAGPSVFLFPPKPKDTLMISRTPEVTCVVVDVSHEDPEVQFNWYVDGVEVHNAKTKPREEQFNSTFRVVSVLTVVHQDWLNGKEYKCKVSNKGLPAPIEKTISKTKGQPREPQVYTLPPSREEMTKNQVSLTCLVKGFYPSDIAVEWESNGQPENNYKTTPPMLDSDGSFFLYSKLTVDKSRWQQGNVFSCSVMHEALHNHYTQKSLSLSPGARTSTRKQNYMMNFSRQHGLRHFYNRRRR
For the molecule B1, the binding result is listed as “binds”.
